Data reported in article PMC6925144, “A prospective compound screening contest identified broader inhibitors for Sirtuin 1” (Scientific Reports, 2019).
Over roughly 3,200 compounds, “TSA(without NAD+) / Primary screening (TSA) / delta Tm (K)” has its median near -0.07; the highest 2% begin near 0.37. This is one part of the list.

The chains behind the UniProt entries cited, without tags or fusion partners. Residues count along the entry.
UniProt Q96EB6, 2-747 limits assumed: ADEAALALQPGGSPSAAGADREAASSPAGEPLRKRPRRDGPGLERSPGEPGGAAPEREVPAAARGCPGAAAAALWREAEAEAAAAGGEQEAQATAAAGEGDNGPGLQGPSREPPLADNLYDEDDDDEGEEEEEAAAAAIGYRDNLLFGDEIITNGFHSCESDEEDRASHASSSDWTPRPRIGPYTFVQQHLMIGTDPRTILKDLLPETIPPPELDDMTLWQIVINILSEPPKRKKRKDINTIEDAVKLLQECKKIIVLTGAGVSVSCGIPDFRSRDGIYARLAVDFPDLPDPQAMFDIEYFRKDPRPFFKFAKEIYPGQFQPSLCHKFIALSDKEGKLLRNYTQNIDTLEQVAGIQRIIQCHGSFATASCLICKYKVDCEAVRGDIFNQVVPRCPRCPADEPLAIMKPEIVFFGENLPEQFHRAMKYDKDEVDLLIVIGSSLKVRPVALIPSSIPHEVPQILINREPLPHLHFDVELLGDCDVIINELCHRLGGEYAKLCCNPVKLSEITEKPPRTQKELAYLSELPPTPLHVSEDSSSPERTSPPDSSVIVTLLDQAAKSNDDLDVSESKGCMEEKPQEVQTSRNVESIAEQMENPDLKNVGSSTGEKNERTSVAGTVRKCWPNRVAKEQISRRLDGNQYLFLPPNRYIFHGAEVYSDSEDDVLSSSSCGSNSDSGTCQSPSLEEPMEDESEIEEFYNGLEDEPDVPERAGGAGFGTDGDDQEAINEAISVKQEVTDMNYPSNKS

molecular target: NAD-dependent deacetylase Sirtuin 1 (human, UniProt Q96EB6); experiment: primary screen, delta tm; parameters: single well (n = 1); details: 10 µM
Outline: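 Thermal shift of Sirtuin 1 measured without NAD+, compound at 10 µM (n = 1); value is ΔTm, with hits defined as ΔTm > 0.45 K or < −1.5 K. Hits retested at 5, 10, 20 µM (n = 4) and counterscreened on bovine carbonic anhydrase and ABL1 SH2 domain.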

SMILES | TSA(without NAD+) / Primary screening (TSA) / delta Tm (K)
O=C(Nc1cccc(S(=O)(=O)N2CCOCC2)c1)c1ccccc1Cc1ccccc1 | -0.13 K
Cc1ncc(CN2CCC(Nc3ccc4nnnn4n3)C(C)C2)s1 (stereo not shown) | 0.12 K
Cc1ccc(C(C)(C)C)cc1SCC(=O)Nc1cc(C(N)=O)cc(C(N)=O)c1 | 0.19 K
OCCNc1ccc2nnc(C(F)(F)F)n2n1 | -0.13 K
CC(=O)c1c[nH]c(C(=O)NCCc2ccc(-c3csc(C)n3)s2)c1 | -0.24 K
NC(=O)NC(CC(=O)OCC(=O)NC12CC3CC(CC(C3)C1)C2)c1cccc(Oc2ccccc2)c1 (stereo not shown) | -0.04 K
COc1ccc2c(COC(=O)c3ccc(=O)n(Cc4ccccc4)n3)cc(=O)oc2c1 | 0.06 K
CCOc1ccc(S(=O)(=O)N2CCOCC2)cc1NC(=O)C1=COCCO1 | -0.18 K
O=C1NCCN1c1cccc(N2C(=O)Cc3ccccc3C2=O)c1 | -0.24 K
Cn1ncc2c(N3CCC(C(=O)Nc4ccccc4O)CC3)ncnc21 | -0.02 K
Cc1ccnc(NC(=O)C2CCN(C(=O)c3cccc(S(=O)(=O)NCC4CCCO4)c3)CC2)c1 (stereo not shown) | -0.02 K
Cc1ccc(S(=O)(=O)CCC(=O)OCc2nnc(-c3ccc([N+](=O)[O-])cc3)o2)cc1 | -0.02 K
O=C(NC1=NCCS1)c1cc(Cl)ccc1O | -0.05 K
O=C(CCCNC(=O)c1ccc(Cl)cc1)Nc1cccc(S(=O)(=O)N2CCOCC2)c1 | 0.07 K
CCC1CCCCN1c1ncnc2c(C)csc12 (stereo not shown) | 0.22 K
NC(=O)C(Cc1ccccc1)NC(=O)CCc1nc2ccccc2[nH]1 (stereo not shown) | -0.17 K
C=CCn1c(SCC(=O)NC(C)c2ccco2)nc2ccsc2c1=O (stereo not shown) | -0.18 K
Cc1nc2ccccc2c(C)c1C(=O)OCC(N)=O | -0.12 K
CC(C)c1ccc(C2(C)CC(=O)NC2=O)cc1 (stereo not shown) | -0.24 K
NC(=O)c1cncc(Oc2nc3ccccc3o2)c1 | -0.02 K
NCCS(=O)(=O)CCN | -0.21 K
Cc1ccnc(NC(=O)C2CCN(c3nc(C)nc4scc(-c5cccs5)c34)CC2)c1 | -0.28 K
CC(=C/c1ccccc1)/C=N/NC(=O)c1cc(-c2ccc(C)cc2)n[nH]1 | 1.06 K

Some of these compounds in order of molar mass, high to low.
SMILES | TSA(without NAD+) / Primary screening (TSA) / delta Tm (K)
O=C(CCCNC(=O)c1ccc(Cl)cc1)Nc1cccc(S(=O)(=O)N2CCOCC2)c1 | 0.07 K
Cc1ccc(C(C)(C)C)cc1SCC(=O)Nc1cc(C(N)=O)cc(C(N)=O)c1 | 0.19 K
NCCS(=O)(=O)CCN | -0.21 K

The list goes on:

SMILES | TSA(without NAD+) / Primary screening (TSA) / delta Tm (K)
CC(C)Cc1ccc(C(=O)C2CCN(C(=O)c3cnc4ccccc4n3)CC2)cc1 | -0.23 K
CC(C)Oc1ccc(C(=O)C2=C(O)C(=O)N(CCCN3CCOCC3)C2c2cccs2)cc1 (stereo not shown) | -0.23 K
COc1ccc(C(=O)C2=C(O)C(=O)N(CCCN3CCOCC3)C2c2ccco2)cc1Cl (stereo not shown) | 0.02 K
Cc1cc(NC(=O)CCc2nc3ccccc3[nH]2)ccc1N1CCCC1 | -0.08 K
O=S(=O)(/C=C/c1ccccc1)N1CCN(c2ncnc3sc4c(c23)CCCCC4)CC1 | -0.14 K
CC(C)COc1ccc(C(=O)C2=C(O)C(=O)N(CCN3CCOCC3)C2c2cccnc2)cc1 (stereo not shown) | 0.05 K
C#CCCCN | -0.05 K
O=C(O)[C@H](O)[C@@H](O)C(=O)O | -0.08 K
CCOc1ccc(C2C(C(=O)c3cccc(OC)c3)=C(O)C(=O)N2CCCN2CCOCC2)cc1 (stereo not shown) | -0.08 K
COc1ccc(NC(=O)CSc2nnc(Nc3ccc(SC(F)F)cc3)s2)cc1OC | 0.73 K
O=C1NC(=S)NC(=O)C1=NNc1ccc(OC(F)F)cc1 | -0.15 K
Cc1nc2c3ccccc3nc(N3CCC(C4(C)NC(=O)NC4=O)CC3)n2n1 (stereo not shown) | -0.15 K
N#C/C(=C\c1ccc(-c2ccc(Cl)c(C(F)(F)F)c2)o1)C(N)=S | 0.12 K
C/C(=N/N)c1ccc2c(c1)-c1ccccc1C2 | -0.01 K
O=C(Nc1ccccc1O)C1CCN(c2ncnc3scc(-c4ccc(F)cc4)c23)CC1 | -0.18 K
Cc1ccc(C23CC4CC(CC(C(=O)N5CCN(S(=O)(=O)c6ccccc6)CC5)(C4)C2)C3)cc1 | -0.27 K
Cc1nc(CN2CCN(S(=O)(=O)c3cc(C(N)=O)n(C)c3)CC2)cs1 | -0.08 K
Cc1cnn(C2CCCN(C(=O)c3ccc(C(N)=S)cc3)C2)c1 (stereo not shown) | -0.24 K
Cc1ccn2c(=O)cc(Cn3cnc4c(oc5ccccc54)c3=O)nc2c1 | -0.17 K
CC(C)N(CC(=O)Nc1cc(C(N)=O)cc(C(N)=O)c1)Cc1ccccc1 | 0.02 K
O=C(Cc1cccnc1)Nc1ccccc1N1CCC(CO)CC1 | 0.19 K
O=C(COC(=O)c1ccc(CNS(=O)(=O)c2ccc(F)c(Cl)c2)cc1)c1ccccc1 | -0.03 K
COc1ccc(N2C(=O)C(=O)N(CC(=O)Nc3ccccc3SCc3ccccc3)C2=O)cc1 | 0.27 K
